These are yes or no findings as the source states them, for the method shown. Binding seen in cells or lysates may run through a third protein. Some results given as binding are weak or reduced against the parent protein; the word gives no strength. Sequences can lack the tags named with a protein.
T1: FLAG-Rab27A(T23N) (UniProt Q9ERI2)
T1 sequence: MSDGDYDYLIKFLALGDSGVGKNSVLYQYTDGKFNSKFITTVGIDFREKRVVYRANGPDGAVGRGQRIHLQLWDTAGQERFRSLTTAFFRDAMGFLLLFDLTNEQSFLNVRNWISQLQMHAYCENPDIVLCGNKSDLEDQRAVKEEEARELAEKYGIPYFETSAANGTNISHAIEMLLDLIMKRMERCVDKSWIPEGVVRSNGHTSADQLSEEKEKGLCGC

Chains of the proteins cited; added tags and fusions are not shown.
UniProt P15920: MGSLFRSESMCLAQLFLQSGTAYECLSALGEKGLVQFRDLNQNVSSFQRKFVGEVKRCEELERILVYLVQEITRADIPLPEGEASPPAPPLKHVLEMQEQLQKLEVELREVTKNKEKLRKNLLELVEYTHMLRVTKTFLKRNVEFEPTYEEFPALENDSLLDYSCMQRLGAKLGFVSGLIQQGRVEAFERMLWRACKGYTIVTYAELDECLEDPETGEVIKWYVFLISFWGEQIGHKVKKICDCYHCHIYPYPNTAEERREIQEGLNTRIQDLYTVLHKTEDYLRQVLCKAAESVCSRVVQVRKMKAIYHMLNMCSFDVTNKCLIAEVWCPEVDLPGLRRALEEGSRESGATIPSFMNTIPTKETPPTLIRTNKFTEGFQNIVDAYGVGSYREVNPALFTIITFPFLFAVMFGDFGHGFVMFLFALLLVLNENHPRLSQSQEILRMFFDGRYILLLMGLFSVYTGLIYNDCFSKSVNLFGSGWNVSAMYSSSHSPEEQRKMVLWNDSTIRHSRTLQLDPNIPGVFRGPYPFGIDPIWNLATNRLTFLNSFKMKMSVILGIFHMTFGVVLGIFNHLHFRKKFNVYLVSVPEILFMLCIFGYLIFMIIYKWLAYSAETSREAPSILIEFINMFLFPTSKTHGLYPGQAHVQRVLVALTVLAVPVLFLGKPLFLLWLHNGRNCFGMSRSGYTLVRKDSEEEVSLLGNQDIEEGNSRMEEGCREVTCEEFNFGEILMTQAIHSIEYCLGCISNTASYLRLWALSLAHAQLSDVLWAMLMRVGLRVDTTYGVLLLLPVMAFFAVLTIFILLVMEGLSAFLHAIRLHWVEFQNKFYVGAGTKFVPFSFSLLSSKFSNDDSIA


Experiments:
FLAG-Rab27A(T23N) [1] = target: T1, FLAG-Rab27A(T23N); experiment: co-IP; HEK293T post-nuclear supernatant centrifuged at 100,000 x g for 30 min into membrane and soluble fractions; immunoprecipitation buffer added; anti-FLAG precipitation; western blot
FLAG-Rab27A(T23N) [2] = target: T1, FLAG-Rab27A(T23N); experiment: co-IP; co-expression in HEK293T; lysate in 1% Triton X-100, 10% glycerol, 50 mM Tris-HCl pH 7.4, 150 mM NaCl, 1 mM DTT, 1 mM EDTA; anti-FLAG M2-agarose, 2 h at 4 °C; western blot
[3] = target: FLAG-tagged a2 subunit isoform of V-ATPase (UniProt P15920); experiment: as above

| binding (FLAG-Rab27A(T23N) [1]) | binding (FLAG-Rab27A(T23N) [2]) | binding [3] | Molecule |
| --- | --- | --- | --- |
| binds | binds | – | V5-tagged a2 subunit isoform of V-ATPase (from UniProt P15920 1-856) |
| – | – | binds | V5-fused Rab27A T23N (GDP-bound form) (protein, UniProt Q9ERI2 1-221) MSDGDYDYLIKFLALGDSGVGKNSVLYQYTDGKFNSKFITTVGIDFREKRVVYRANGPDGAVGRGQRIHLQLWDTAGQERFRSLTTAFFRDAMGFLLLFDLTNEQSFLNVRNWISQLQMHAYCENPDIVLCGNKSDLEDQRAVKEEEARELAEKYGIPYFETSAANGTNISHAIEMLLDLIMKRMERCVDKSWIPEGVVRSNGHTSADQLSEEKEKGLCGC |
| – | – | binds | V5-EPI64, the Rab27A GTPase-activating protein (GAP) (protein, UniProt P58802 1-500) MAKSSRENGPREPAAGGSLSGTRESLAQGPDAATADELSSLGSDSEANGFAERRIDKFGFIVGSQGAEGALEEVPLEVLRQRESKWLDMLNNWDKWMAKKHKKIRLRCQKGIPPSLRGRAWQYLSGGKVKLQQNPGKFDELDMSPGDPKWLDVIERDLHRQFPFHEMFVSRGGHGQQDLFRVLKAYTLYRPEEGYCQAQAPIAAVLLMHMPAEQAFWCLVQVCEKYLPGYYSEKLEAIQLDGEILFSLLQKVSPVAHKHLSRQKIDPLLYMTEWFMCAFARTLPWSSVLRVWDMFFCEGVKIIFRVGLVLLKHALGSPEKLKACQGQYETIEQLRSLSPKIMQEAFLVQEVIELPVTERQIEREHLIQLRRWQETRGELECRSLPRMHGAKAILDAEPGPRPALQPSPSIRLPPDAALLSSKAKPHKQAQKEQKRTKTSAQLDKSPGLSQATVVTAAGDACPPQGVSPKDPVPQDPTPQNLACHHSQESLTSQESEDTYL |

Reference: PMC12125285
